Results reported in patent publication US20060198832A1, “Peptide drugs for chronic lymphocytic leukemia (CLL) and other cancers” (priority 2004, published 2006).
Results are given in words; binding and its absence hold for the method and conditions named. Some binding calls cover weakened binding; strength is not graded here.

Protein sequences, listed by entry. Tags and fused reporters are not part of them. Residues count along the entry.
UniProt P10415, residues 1-205: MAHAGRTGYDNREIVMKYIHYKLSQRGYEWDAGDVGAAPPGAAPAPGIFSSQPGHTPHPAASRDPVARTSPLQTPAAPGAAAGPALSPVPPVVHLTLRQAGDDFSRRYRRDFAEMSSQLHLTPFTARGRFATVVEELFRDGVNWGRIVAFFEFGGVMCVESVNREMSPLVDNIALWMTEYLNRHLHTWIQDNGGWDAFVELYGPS

Target: GST-Bcl2(1-205; Santa Cruz Biotechnology) (UniProt P10415)
Test: competition ELISA: peptide in solution with GST-Bcl2(1-205), plate-bound biotinylated Bad peptide

B1: modified BAD peptide 2Ser/Ala (SEQ ID NO: 2) (peptide)
peptide: NLWAAQRYGRELRRMADEFVDAFKK
In the case of B1, the binding is reported as “binds”.

B2: wild type BAD peptide (SEQ ID NO: 1) (peptide)
peptide: NLWAAQRYGRELRRMSDEFVDSFKK
With B2 the binding was “binds”.
